Results are given in words; binding and its absence hold for the method and conditions named. In cells and extracts the contact can be indirect. Some results given as binding are weak or reduced against the parent protein; the word gives no strength. Where a sequence is shown, tags or fusion partners need not be part of it.

For experiment [1], the target named is Flag-tagged C11orf84 (human) (UniProt Q9BUA3). The experiment in a line: co-IP; Flag- and Myc-tagged plasmids co-transfected into HEK293T; lysate in NP40 buffer (50 mM Tris pH 7.5, 150 mM NaCl, 1 mM EDTA, 1% NP40); anti-Flag M2 beads 1 h; immunoblot.
Experiment [2] deals with T1, Flag-tagged C11orf84 (human), Q9BUA3.
T1 chain: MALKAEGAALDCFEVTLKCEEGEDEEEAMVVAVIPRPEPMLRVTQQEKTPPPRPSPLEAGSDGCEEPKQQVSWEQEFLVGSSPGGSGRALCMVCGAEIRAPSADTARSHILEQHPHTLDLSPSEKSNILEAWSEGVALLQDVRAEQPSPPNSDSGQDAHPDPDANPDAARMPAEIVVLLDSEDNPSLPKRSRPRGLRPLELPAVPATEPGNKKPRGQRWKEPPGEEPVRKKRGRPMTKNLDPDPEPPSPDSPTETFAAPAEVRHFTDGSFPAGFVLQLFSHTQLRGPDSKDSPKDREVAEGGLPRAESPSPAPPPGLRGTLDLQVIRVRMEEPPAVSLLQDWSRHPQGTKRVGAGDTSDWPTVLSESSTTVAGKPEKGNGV
Described as above. To be noted: remark: other sources report otherwise.

For experiment [3], the target named is T2, C11orf84 (wild type, tagged, expressed in HEK293T cells) (human), Q9BUA3.
T2 chain: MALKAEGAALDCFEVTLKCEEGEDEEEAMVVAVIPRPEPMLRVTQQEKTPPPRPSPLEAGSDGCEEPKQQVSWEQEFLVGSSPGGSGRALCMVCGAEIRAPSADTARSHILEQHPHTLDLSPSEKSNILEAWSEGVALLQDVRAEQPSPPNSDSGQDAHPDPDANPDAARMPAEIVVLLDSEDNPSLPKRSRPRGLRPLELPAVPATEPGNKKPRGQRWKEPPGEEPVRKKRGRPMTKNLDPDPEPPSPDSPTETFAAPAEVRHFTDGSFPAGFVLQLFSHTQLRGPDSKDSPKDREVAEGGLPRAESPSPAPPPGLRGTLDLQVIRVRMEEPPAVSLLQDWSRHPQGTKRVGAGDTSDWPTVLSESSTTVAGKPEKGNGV
The experiment in a line: co-IP; HEK293T co-transfected with Flag- and Myc-tagged plasmids; NP40 buffer (50 mM Tris pH 7.5, 150 mM NaCl, 1 mM EDTA, 1% NP40); anti-Flag M2 beads, 1 h; immunoblot. To be noted: remark: other sources report otherwise. For orientation: In western blotting, separated proteins are transferred to a membrane and probed.

B1: Myc-tagged Spindlin3 (protein)
chain: MKTPFGKAAAGQRSRTGAGHGSVSVTMIKRKAAHKKHRSRPTSQPRGNIVGCRIQHGWKDGDEPLTQWKGTVLDQVPVNPSLYLIKYDGFDCVYGLELHRDERVSSLEVLPNRVASSRISDTHLAEIMVGKAVEHIFETEEGSKNEWRGMVLAQAPVMNTWFYITYEKDPVLYMYQLLDDYKDGDLRILQDSNDSPLAEREPGEVIDSLVGKQVEYAKDDGSKRTGMVIHQVEAKPSVYFIKFDDDFHIYVYDLVKTS
On to B1, for which, in experiment [1], the binding result is listed as “binds”.

B2: Myc-tagged Spindlin2A (protein)
chain: MKTPNAQEAEGQQTRAAAGRATGSANMTKKKVSQKKQRGRPSSQPCRNIVGCRISHGWKEGDEPITQWKGTVLDQVPINPSLYLVKYDGIDCVYGLELHRDERVLSLKILSDRVASSHISDANLANTIIGKAVEHMFEGEHGSKDEWRGMVLAQAPIMKAWFYITYEKDPVLYMYQLLDDYKEGDLRIMPESSESPPTEREPGGVVDGLIGKHVEYTKEDGSKRIGMVIHQVETKPSVYFIKFDDDFHIYVYDLVKKS
Regarding B2, in experiment [1], the binding result is recorded as “binds”.

B3: Myc-tagged Spindlin2B (protein)
chain: MKTPNAQEAEGQQTRAAAGRATGSANMTKKKVSQKKQRGRPSSQPRRNIVGCRISHGWKEGDEPITQWKGTVLDQVPINPSLYLVKYDGIDCVYGLELHRDERVLSLKILSDRVASSHISDANLANTIIGKAVEHMFEGEHGSKDEWRGMVLAQAPIMKAWFYITYEKDPVLYMYQLLDDYKEGDLRIMPESSESPPTEREPGGVVDGLIGKHVEYTKEDGSKRIGMVIHQVEAKPSVYFIKFDDDFHIYVYDLVKKS
Consider B3, for which the binding result in experiment [1] is reported as “binds”.

B4: Myc-tagged Spindlin4 (protein)
chain: MSPPTVPPMGVDGVSAYLMKKRHTHRKQRRKPTFLTRRNIVGCRIQHGWKEGNEPVEQWKGTVLEQVSVKPTLYIIKYDGKDSVYGLELHRDKRVLALEILPERVPTPRIDSRLADSLIGKAVEHVFEGEHGTKDEWKGMVLARAPVMDTWFYITYEKDPVLYMYTLLDDYKDGDLRIIPDSNYYFPTAEQEPGEVVDSLVGKQVEHAKDDGSKRTGIFIHQVVAKPSVYFIKFDDDIHIYVYGLVKTP
For the molecule B4, the binding entry in experiment [2] is listed as “binds”.

B5: Spindlin4, Q56A73 1-249 (protein)
chain: MSPPTVPPMGVDGVSAYLMKKRHTHRKQRRKPTFLTRRNIVGCRIQHGWKEGNEPVEQWKGTVLEQVSVKPTLYIIKYDGKDSVYGLELHRDKRVLALEILPERVPTPRIDSRLADSLIGKAVEHVFEGEHGTKDEWKGMVLARAPVMDTWFYITYEKDPVLYMYTLLDDYKDGDLRIIPDSNYYFPTAEQEPGEVVDSLVGKQVEHAKDDGSKRTGIFIHQVVAKPSVYFIKFDDDIHIYVYGLVKTP
Take B5: in experiment [3], the binding entry is reported as “binds”.
